Experimental data taken from patent US20030125325A1, “Pyrazolyl benzyl thioethers” (priority 2001, published 2003).
Some entries share one result that the patent states for a list of compounds.

Key:
Phytophthora infestans = format: in vivo; conditions: tomato, protective, application rate 100 g/ha, evaluation 3 days after inoculation; 0% = control, 100% = no infection
Plasmopara viticola = assay: Plasmopara test (grapevine)/protective; format: in vivo; conditions: protective, application rate 100 g/ha, evaluation 6 days after inoculation, 0% = control, 100% = no infection

Compound: CON=C(C1=NOCCO1)c1ccccc1CSc1ccn(-c2ccc(Cl)cc2)n1 [Example 1, [2-({[1-(4-chlorophenyl)-1H-pyrazol-3-yl]sulphanyl}methyl)phenyl](5,6-dihydro-1,4,2-dioxazin-3-yl)methanone O-methyloxime]
- efficacy (Phytophthora infestans): ≥ 87%
- efficacy (Plasmopara viticola): ≥ 93%
